PubChem BioAssay AID504786 | Drosophila RNAi Screening Center | 2011

- Purpose: 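Knock-downs reducing HIF reporter induction by the iron chelator DFO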 (primary screen)
- Cells: Drosophila S2 cells with a stable HIF luciferase reporter
- Reagent: long dsRNA against Drosophila genes, about 0.2 µg dsRNA per well of a 384-well plate
- Time to read-out: three days of knock-down, then 20 h of DFO before reading
- Challenge: desferrioxamine (DFO) at 100 µM, an iron chelator that mimics hypoxia, for 20 h
- Read-out: 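HIF reporter luminescence in cells given 100 µM DFO for 20 h, using the mouse ldh-a hypoxia-response element, scored as per-plate z-scores; higher means greater loss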
- Direction: z-score: higher = stronger loss of HIF reporter signal
In all, the deposit lists about 21,000 reagents; shown is a random part of those that have a named target and a result. 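Primary screen; positive scores mean lost reporter signal, so the sign may be inverted from the usual convention.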 Reagents against one gene are numbered here. A plus sign joins genes that one reagent is predicted to hit.

gene	reagent	z-score, replicate 1	z-score, replicate 2	z-score, replicate 3	z-score, replicate 4
CG15570	1	-0.3	-0.5		
CG15393 (retired record)	1	-0.3	-0.6		
Dyrk2	1	-0.4	-0.1		
Gr8a	1	0	-0.6		
CG30373	1	-0.2	-0.1		
CycJ	1	-0.3	-0.6		
CG31560	1	-0.2	0.3		
gro	1	-0.4	-0.1		
CG2909	1	1.3	0.5		
RunxA	1	0	0.1		
RunxA	2	-0.4	-0.6		
RunxA	3	-0.4	-0.3	-0.7	-0.2
pyr	1	-0.4	-0.6	-0.2	0.2
Polr3K + Tcs1	1	-0.1	-0.7		
CG10265	1	-0.2	-0.2		
CG42741	1	-0.3	-0.6		
RpL31	1	5.3	4.8		
IleRS-m	1	0	-0.1		
Prp6	1	-0.3	-0.7	0	0
CG31205	1	-0.2	-0.3		

Quoted from the listing for reference:
gene	reagent	z-score, replicate 1	z-score, replicate 2	z-score, replicate 3	z-score, replicate 4
CG31560	1	-0.2	0.3		
gro	1	-0.4	-0.1		
CG2909	1	1.3	0.5		
RunxA	1	0	0.1		

Continued:
gene	reagent	z-score, replicate 1	z-score, replicate 2	z-score, replicate 3	z-score, replicate 4
P5cr	1	0.3	0.2		
CG32188	1	-0.2	-0.3		
unc-13	1	-0.2	-0.3		
unc-13	2	-0.3	-0.6		
unc-13	3	-0.1	-0.3		
Vps26	1	0	-0.1		
CG2004	1	-0.3	0.2		
Ets97D	1	-0.1	-0.5		
CG13707	1	-0.2	-0.4		
CG13937	1	-0.6	-0.5		
CG15673	1	0	-0.5		
CG42521	1	-0.3	-0.5		
CG3071	1	-0.3	-0.5		
mRpL45	1	2.4	1.7		
